Data taken from ChEMBL document CHEMBL3988442, “University of Dundee, Small-Polar-MMV Screening Library” (2021).

By UniProt entry, the sequences of proteins in these tests, tags left out.
UniProt E9BF75, entry or part of it: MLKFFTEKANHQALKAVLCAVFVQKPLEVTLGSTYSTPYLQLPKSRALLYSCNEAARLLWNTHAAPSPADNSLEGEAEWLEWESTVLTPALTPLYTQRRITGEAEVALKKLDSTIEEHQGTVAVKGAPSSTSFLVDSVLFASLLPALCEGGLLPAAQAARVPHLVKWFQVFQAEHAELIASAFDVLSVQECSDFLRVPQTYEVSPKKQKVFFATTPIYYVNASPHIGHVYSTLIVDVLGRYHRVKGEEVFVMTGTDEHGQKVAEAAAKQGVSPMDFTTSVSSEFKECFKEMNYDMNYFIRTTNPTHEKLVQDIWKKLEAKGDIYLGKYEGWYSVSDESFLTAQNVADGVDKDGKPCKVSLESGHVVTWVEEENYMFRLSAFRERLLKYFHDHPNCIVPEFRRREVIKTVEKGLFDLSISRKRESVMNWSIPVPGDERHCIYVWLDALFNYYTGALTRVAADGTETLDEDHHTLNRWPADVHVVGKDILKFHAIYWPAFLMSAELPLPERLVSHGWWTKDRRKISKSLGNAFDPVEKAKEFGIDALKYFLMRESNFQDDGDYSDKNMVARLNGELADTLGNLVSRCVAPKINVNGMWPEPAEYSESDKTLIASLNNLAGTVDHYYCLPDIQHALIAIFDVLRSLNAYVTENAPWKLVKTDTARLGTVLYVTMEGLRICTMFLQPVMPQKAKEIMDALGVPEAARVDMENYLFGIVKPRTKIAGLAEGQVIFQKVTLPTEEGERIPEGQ

Results are percentages, as filed.
The record does not define 0% and 100%; most values in the screen are far below 50% and negative numbers occur (in some assays of this library far below -100).
Compounds were drawn at random from those tested, without regard to their results.

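Methionyl-tRNA synthetase (putative), Leishmania donovani (UniProt E9BF75). Primary screen of methionyl-tRNA synthetase; the read-out is not stated. The test concentration is not given. The values are filed as inhibition. Of about 68,000 compounds tested this way, about 24 (0.035%) reached 50% or more in at least one test.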

{"compound": "CCNC(=O)NCc1cccc(N2CC=CC2)c1", "inhibition": 8.675}
{"compound": "Cc1c(-c2cc(-c3cnn(C)c3C)n(CC(=O)NC3CC3)n2)cnn1C", "inhibition": 7.508}
{"compound": "O=C(c1ccnnc1)N1C[C@H](OCc2ccccn2)[C@H]2COC[C@H]21", "inhibition": 3.922}
{"compound": "O=C(O)Cc1cccc(-n2ccnc2-c2ccc(F)c(Cl)c2)c1", "inhibition": 10.68}
{"compound": "c1cc(CN2CCO[C@@H]3CNC[C@@H]32)co1", "inhibition": 5.923}
{"compound": "Cc1ccc(-c2nc(CN3CCOC(Cn4cccn4)C3)no2)cc1", "stereo": "stereo not given", "inhibition": 16.06}
{"compound": "CCc1noc(C(C)N2CCN(C(=O)CN3CCOCC3)CC2)n1", "stereo": "stereo not given", "inhibition": 26.88}
{"compound": "Cc1cnc2c(S(=O)(=O)NC3CCS(=O)(=O)C3)cccc2c1", "stereo": "stereo not given", "inhibition": 22.86}
{"compound": "CC(=O)N1CCC2(CCN(Cc3ccc(Cl)c(C(F)(F)F)c3)CC2)C1", "inhibition": 6.536}
{"compound": "Cc1csc(CNC(=O)NC(C)c2ccc3c(c2)CCC(=O)N3)n1", "stereo": "stereo not given", "inhibition": 18.75}
{"compound": "Cc1cnnn1Cc1nnn2c1CN(Cc1cccs1)CCC2", "inhibition": 14.29}
{"compound": "Cc1nc([C@@H]2C[C@@H]3CCN(C(=O)Cc4cccc(F)c4)C[C@H]3O2)no1", "inhibition": 7.843}
{"compound": "Cc1nn(C)c(C)c1OCC(=O)NCC(O)c1ccsc1", "stereo": "stereo not given", "inhibition": 13.92}
{"compound": "Cc1cc(C(=O)N2CCc3ncnc(N4CCSCC4)c3CC2)[nH]n1", "inhibition": 16.19}
{"compound": "Cc1cccnc1N1CCN(C(=O)CCc2cn3ccccc3n2)CC1", "inhibition": 0.6944}
{"compound": "CCc1nnc(Nc2cc(C)nc(C3CCN(c4cnccn4)C3)n2)s1", "stereo": "stereo not given", "inhibition": 12.66}
{"compound": "CCOc1ccc(CN2CCC(c3ccn[nH]3)C2)cc1CO", "stereo": "stereo not given", "inhibition": 5.901}
{"compound": "CN(C)Cc1cc(-c2nccn2CCc2cccnc2)ccc1O", "inhibition": 8.6}
{"compound": "Fc1ccccc1Oc1nccnc1C1CCN(C2CCOCC2)CC1", "inhibition": 1.064}
{"compound": "CN(C)C(=O)CSc1nnc(CCNC(=O)OC(C)(C)C)o1", "inhibition": 3.734}
{"compound": "O=c1c(CN2CC3CCCN3C[C@@H]2CCO)coc2ccc(Cl)cc12", "stereo": "stereo not given in full", "inhibition": 13.98}
{"compound": "CC(=O)NC1Cc2ccc(S(=O)(=O)NCCNc3ccccn3)cc2C1", "stereo": "stereo not given", "inhibition": 11.75}
{"compound": "CSCCC(NC(N)=O)C(=O)NCc1ccc(-n2cccn2)cc1", "stereo": "stereo not given", "inhibition": 12.99}
{"compound": "COCCCNC(=O)Cc1cc(-c2ccc(Cl)cc2)on1", "inhibition": -0.7246}
{"compound": "CCN(C(=O)Cn1cc(NC(=O)C(C)(C)C)cn1)c1ccccc1", "inhibition": 12.57}
{"compound": "NC(=O)c1sc2ccccc2c1C1CCN(S(=O)(=O)N2CCOCC2)C1", "stereo": "stereo not given", "inhibition": 0.3175}
{"compound": "COCCNC(=O)N1CCN(C(=O)c2nsc3ccc(C)cc23)CC1", "inhibition": 12.83}
{"compound": "Cc1cccnc1[C@H](C)NC(=O)Cc1cc2c(cc1Cl)OCCO2", "inhibition": 5.442}
{"compound": "COCCn1c(-c2cccc(OC)c2)cnc1NC(=O)NC1CCCC1", "inhibition": 16.91}
{"compound": "CCC(NC(=O)NCC(=O)Nc1ccc(F)cc1)c1ccncc1", "stereo": "stereo not given", "inhibition": 10.56}
{"compound": "CN(CCCC#N)C1CCCN(Cc2noc(C3CC3)n2)C1", "stereo": "stereo not given", "inhibition": 7.08}
{"compound": "CC(C)C(=O)N1CCOC[C@H](Oc2ccc(C(F)(F)F)cc2)C1", "inhibition": 15.93}
{"compound": "COc1ncccc1C(=O)Nc1cccc(C[S+](C)[O-])c1C", "stereo": "stereo not given", "inhibition": 21.58}
{"compound": "COc1ccc(CN2CCc3c(CNC(=O)CC#N)nn(C)c3C2)cc1", "inhibition": 8.711}
{"compound": "Cc1nc(CCCC(=O)Nc2cccc(N3CCNC3=O)c2)cs1", "inhibition": 16.17}
{"compound": "N#Cc1ccc(F)c(CSCCN2CCOCC2)c1", "inhibition": 10.99}
{"compound": "CN1CCC(N(C)C(=O)c2cnn(-c3ccccc3Br)c2N)CC1", "inhibition": 9.722}
{"compound": "CN(C)c1ccc(-c2noc([C@@H]3CCCN3)n2)cn1", "inhibition": 1.099}
{"compound": "Cc1nc[nH]c1CN1CCc2nc3scc(C)c3c(=O)n2CC1", "inhibition": 19.29}
{"compound": "CN1CCCC[C@@H]2[C@H]1[C@@H](c1ccccc1)CCN2C(=O)c1cccnc1", "inhibition": 14.06}
{"compound": "Cc1cc(C)cc(OCCN(C)Cc2ccc(S(=O)(=O)N(C)C)o2)c1", "inhibition": 4.505}
{"compound": "Cc1cc(N2CCC(Cc3cccnc3)C2)ncn1", "stereo": "stereo not given", "inhibition": 15.22}
{"compound": "CC1(NC(=O)Cc2csc(NC(=O)c3ccccc3)n2)CCS(=O)(=O)C1", "stereo": "stereo not given", "inhibition": 13.17}
{"compound": "O=C(c1cccnc1Oc1ccccc1)N1CCCn2ncnc21", "inhibition": 7.124}
{"compound": "CS(=O)(=O)Cc1nc(CN2CCc3ccccc3CC2)cs1", "inhibition": 1.282}
{"compound": "Cc1noc(C(C)C)c1C(=O)NS(=O)(=O)c1cccnc1", "inhibition": 9.922}
{"compound": "CC(C)CCN(C(=O)Nc1cccc(C(=O)N(C)C)c1)C1CC1", "inhibition": 11.15}
{"compound": "CCOCc1nc2c(c(N3CC=CC3)n1)CCN(Cc1ccco1)CC2", "inhibition": 13.44}
{"compound": "O=C(C1CCOCC1)N1CCN2C(=O)N(Cc3ccc(F)cc3)C[C@H]2C1", "inhibition": 9.341}
{"compound": "CN1CCc2nnc(C3CCCN3S(=O)(=O)c3ccc(F)cc3)n2CC1", "stereo": "stereo not given", "inhibition": 21.7}
{"compound": "Cc1cc2c(=O)n3c(nc2s1)CCN(Cc1cnc(C)n1C)CC3", "inhibition": 7.292}
{"compound": "CC(C)c1ncc(CN2CCCC2c2[nH]ncc2C(=O)N(C)C)cn1", "stereo": "stereo not given", "inhibition": 15.22}

Once more, the final 6:

Result for CC(C)CCN(C(=O)Nc1cccc(C(=O)N(C)C)c1)C1CC1 was 11.15%.
Result for CCOCc1nc2c(c(N3CC=CC3)n1)CCN(Cc1ccco1)CC2 was 13.44%.
Result for O=C(C1CCOCC1)N1CCN2C(=O)N(Cc3ccc(F)cc3)C[C@H]2C1 was 9.341%.
Result for CN1CCc2nnc(C3CCCN3S(=O)(=O)c3ccc(F)cc3)n2CC1 (stereo not given) was 21.7%.
Result for Cc1cc2c(=O)n3c(nc2s1)CCN(Cc1cnc(C)n1C)CC3 was 7.292%.
Result for CC(C)c1ncc(CN2CCCC2c2[nH]ncc2C(=O)N(C)C)cn1 (stereo not given) was 15.22%.